At least one structure is not confirmed: it was looked up by name or label, or the drawing left a doubt.
Columns and labels:
[1] = system: AvBD9; assay: AvBD9 gene expression in chicken HD11 macrophage cells (real-time RT-PCR); type: cell-based; conditions: 1 h inhibitor pretreatment, then 0.2 M lactose 24 h
Procedure: (§1) Chicken HD11 macrophage cell line was obtained from USDA-Agricultural Research Services (ARS), and chicken HTC macrophage cell line was secured from USDA-ARS. Both HD11 and HTC macrophage cells were propagated in RPMI 1640 containing 10% fetal bovine serum (FBS), 100 μg/ml streptomycin, and 100 U/ml penicillin. Peripheral blood mononuclear cells (PBMCs) were isolated from EDTA-anticoagulated chicken blood by gradient centrifugation with Histopaque 1077 (Sigma) following manufacturer's instructions. Briefly, chicken blood was overlaid onto Histopaque 1077 (Sigma) at 1:1 ratio, and centrifuged at 400×g for 30 min. Interphase containing PBMCs was aspirated and washed 3 times with PBS at 250×g for 10 min. Cell pellet was re-suspended with RPMI 1640, supplemented with 10% FBS, 100 μg/ml streptomycin, 100 U/ml penicillin, and 20 mM HEPES. […]
(§2) Total RNA was extracted from chicken cells and tissues using RNAzol RT (Molecular Research Center) and quantitated using Nanodrop 1000 (Nanodrop Products, Wilmington, Del.). […] QuantiTect SYBR Green PCR Kit (Qiagen, Valencia, Calif.) was used in 10 μl reactions with 4 and 1 μl of diluted cDNA for AvBD9 and GAPDH, respectively. […] Relative fold change in the AvBD9 gene expression was calculated using the ΔΔCt method normalized against the GAPDH levels.

[2] = system: AvBD9; assay: AvBD9 gene expression in chicken peripheral blood mononuclear cells (PBMCs) (real-time RT-PCR); type: cell-based; conditions: 1 h inhibitor pretreatment, then 2 mM sodium butyrate 24 h
Procedure: as §1, §2

Q: What does the source list for `Oc1c2ccccc2c2c3c(cccc13)N=N2` [SP600125, reference compound]?
A: Effect of pathway inhibitor on lactose-induced AvBD9 expression [1]: synergized substantially; Effect of pathway inhibitor on butyrate-induced AvBD9 expression [2]: strong synergistic AvBD9 induction
